According to paper PMC10127613 (mBio, 2023):
Negatives hold for the conditions tested. Where a protein sequence is shown, tags need not be part of it. Weaker means in comparison with the reference protein, sequence or condition of that experiment.

Molecular target: T1, Clr (Sinorhizobium meliloti) (UniProt Q92SD2)
T1 sequence (looked up): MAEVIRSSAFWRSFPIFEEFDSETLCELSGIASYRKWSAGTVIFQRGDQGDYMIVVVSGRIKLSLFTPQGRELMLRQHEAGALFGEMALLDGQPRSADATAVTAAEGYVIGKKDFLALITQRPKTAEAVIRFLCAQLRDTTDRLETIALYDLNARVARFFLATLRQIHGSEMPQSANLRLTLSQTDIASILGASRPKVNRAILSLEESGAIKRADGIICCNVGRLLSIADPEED
Experiment: EMSA
Details: 1 mM cAMP, EMSA: 2 mM HEPES pH 7.0, 30 mM NaCl, 50 mM KCl, 850 ng salmon sperm DNA, 1 ug BSA, 20 ng Cy3-DNA, 3 ug Clr in 10 uL, room temperature, recombinant protein, residues 1-234, protein details: C-terminal His6 (pET36b, NdeI/XhoI), label: 5'-Cy3 on reverse strand

| Sequence | binding result |
| --- | --- |
| AGCGGATAACAATTTCACACAGGAAACAGCATATGACCATGATTACGCCAAGCTCGAAATTAACCCTCACTAAAGGGAACAAAAGCTGGAGCTCTTAAGCTTCGAAATCACGCGCCAAACCGAGTTTCTGCAGCGACTTTTGCGCGCCTCCAAAGTCGTGGGTGCGCTACAAAGCACATCGTTCATTCTACCGAATGCGAAAAGGCAGAATATGTTCCACGCCCCTCGCGACCCATATATGGGCAACACTCAATCAGAAGGCGCAGTTTCCTTCGAAGCCCGGTCTTCATTTTCCGAGTTGTCACATCCGGAACAGCGAGGCCGCGTGAAAGGCCCTTTTATCTAGATGTTCTCATATGGGTGAGATCATGCTAATTTTCTCGTTTCTCGGAGGGGAAACCGATGCCACGTATTACTAGACTGCAGATGGTGAGCAAGGGCGAGGAGCTGTTCA (double strand) [SMc04190] | binds |
| AGCGGATAACAATTTCACACAGGAAACAGCATATGACCATGATTACGCCAAGCTCGAAATTAACCCTCACTAAAGGGAACAAAAGCTGGAGCTCTTAAGCTTCGATCAGCCGGACCTTCGATCCGCGCTTTTCAGCGATCCTAAAGACGCGGGCCGCGGGGCCGCCCTGAGCGCTAACGGCGTGGCGAATCGCTCGCGAAAATACGGATTGTTATTCTTACTTGAAATATTGCCGATATAGCGCTTAAATGCGCACCAGTCGGCGGGATCACATTTAACTGCTGCATGATTATTTGATTGCGTCTGCAACATTTCGCAGGCGGCTACATTTTTATTTGCATACCATTTTTATTATTTAAAATCAGAGGGATTGCGATATGTCTCTTCCCCATCTAGACTGCAGATGGTGAGCAAGGGCGAGGAGCTGTTCA (double strand) [nodP2] | no binding |
| AGCGGATAACAATTTCACACAGGAAACAGCATATGACCATGATTACGCCAAGCTCGAAATTAACCCTCACTAAAGGGAACAAAAGCTGGAGCTCTTAAGCTTCGCAATCGTGAAGCCAAGGGCATGCGCCTTGCCCATGAAACCCGTCCCGATCAGGCCAATGCCCAGCCTGCGCTTGCCGCTCATCTCGTTTCTCCCGGGCCAGGCCCTCGTCTGTGCTCGGCGAAATGAAATGAAATGCGCGGGAATTGTCAATATGGAATATTTGTTCGAAAATCTGGTCCGCGTGCCTGATGGAACAGAGCGTACCCGCTCGGCCCGCTATGCTTGGGGAAGAATGTGTTAACGCATTTTTACCATGTTGCGTTGAAACATCACTGGTGACGGTGGTGGACGAATCGCTTTCATATGGTGGGGCGAAATCGGAGTGATCGAGCATGTGCCGTTGGGCAGCCTATTCTAGACTGCAGATGGTGAGCAAGGGCGAGGAGCTGTTCA (double strand) [SMc01162 / SMc01163] | binds more weakly |
| AGCGGATAACAATTTCACACAGGAAACAGCATATGACCATGATTACGCCAAGCTCGAAATTAACCCTCACTAAAGGGAACAAAAGCTGGAGCTCTTAAGCTTCGCCAGAAGCTCAGCTTTCTGCGCAGGCTGCGGCGGTCGGCAATGGCGAGTTCGTCCATGGGTGTCTCCGATTTTTGGTAAGGGGGTTCTGTCAGTTTCCCACGGAACATGCTATCTGCCTCAGCCGCGGCAAGCTAGGGTAGTCTGCAACGCGGCGCACGGGAATAGGCGCCGGGCCGACGCGAGTTGCTGCATGAAACCCCTTGGGGTTTGACGCGGCATGGAGTAGAGCATGCCCGGCGGAATGGAATATTGCGGCGGGATTGTCTTACAACGCAAAGTTTGCGCCGCTCCATTGCCGGGCGGCAGCAAGATAACCATATTCGCCGTGGCTTACGCCGATGTATGTATATGTGTCCCTCGGACTGCCCGAGGTCAGACGAAACTGACAGGCTCTTGATGCTGAACGAAGCCTCTAGACTGCAGATGGTGAGCAAGGGCGAGGAGCTGTTCA (double strand) [SMc01135 / SMc01136] | binds |
| AGCGGATAACAATTTCACACAGGAAACAGCATATGACCATGATTACGCCAAGCTCGAAATTAACCCTCACTAAAGGGAACAAAAGCTGGAGCTCTTAAGCTTCGCGACCTCGGACTTTCGATAGAGGCGATCCGGGACCTTCTGGCACTGAGCGAGCATCCGGAACGCCCCTGCGGCGAGGCGGACCGCATCGCCACCGAGCATCTTGCCTCCGTGCGGGAAAAGATCGCCCAGCTCAGAAGGCTGGAGCATGAGCTCGAGCGCATCGTCGCTTGCCATGGCGACCACACGATCGGCGATTGCTATGTGATCCGCGCGCTCGCCGACCACTCGCTGTGCGGAAACGAGCATTGAAATTCCTCGTTGACAAATTCCGGGATTTGGACAATCTACGCGCATGATCAAGAACGCGCCCATTTCCAGCGTATATTTTTGGCTGTTCCGATAGGAGCGGCCTGCTGATCATATTCAACAAGGCCGCCATCAGGCGGCTTTTGTTTTTCACGGCACCTGATGGCGGCAGAGAACCATCAGGAGCCGAGAATGTCTAGACTGCAGATGGTGAGCAAGGGCGAGGAGCTGTTCA (double strand) [SMc00108] | no binding |
| AGCGGATAACAATTTCACACAGGAAACAGCATATGACCATGATTACGCCAAGCTCGAAATTAACCCTCACTAAAGGGAACAAAAGCTGGAGCTCTTAAGCTTCGCGCGTTTGTCATCTTGGATTTATGGAGACGAAAACGGCCAGGCCAGCGGATCGCTAGCGAATAATGTTCCGGCAAATAATGCAGATAACCGTTTTCATGGCGACCCTTATCGCGCGTCGCCCGGCGCCGGTCAAGAGGCGAGCCACGTGCAAGCGAAAGTCGTCAATCTGCAACCATGACGGCCATGGATTTGTCACGATTTGGCTTATCTGGAAATCATCGGAGGGGAAGGAGATTCGCGAATGCAGCCGGATACTGCATCAGGTCCTGTTTCCCGAGGAACAACAGGGACATGGTTTTCGTTGAAAATTCACGAGGGCTAATGTTCCCAATAGGGAAAACACCAAGGAAGACATGCAATGAAGGCCGCCAAAATTGCCTCTAGACTGCAGATGGTGAGCAAGGGCGAGGAGCTGTTCA (double strand) [cysS / SMc02552] | binds |
| AGCGGATAACAATTTCACACAGGAAACAGCATATGACCATGATTACGCCAAGCTCGAAATTAACCCTCACTAAAGGGAACAAAAGCTGGAGCTCTTAAGCTTCGGTCGGTGGTTTTCCATCAATCGGAACCTGAACGCTGAAAGTGAAACGTGCCGCTTCCATAGCCTAGTCCACCTCGTCCTCTGCCATCGGCACAAGGCCGACGATGGGCAAAAACGGCATCGTAGAAGCGCTTCGAACGCCCAACATCATTCGTCCCTACCGAGACATGGTGGATCACAACTACCTGCGCTCCAGCTTTGTCCCTAGCGGCAGCTTCTGGTCATTGTTTCCTCAAAGCCGACTGTCGTTTGTTCACCACAAGATACAGCCTTGCTTTCATGTTGAACGGTAATTTATGTTGTGTTCAACACACGGAGGCTAGCATGCGTGCCCAAATCAGTTCCTCTAGACTGCAGATGGTGAGCAAGGGCGAGGAGCTGTTCA (double strand) [SMa1706 /SMa1711] | binds more weakly |
| AGCGGATAACAATTTCACACAGGAAACAGCATATGACCATGATTACGCCAAGCTCGAAATTAACCCTCACTAAAGGGAACAAAAGCTGGAGCTCTTAAGCTTCGTAACGGTGGCTTCCCGGCCGTTTCCTTTTAAAGTCGTGGTCTTGCCCGTTTCGAGCGGAAACTTCGTGAAGTTGGTCGTCCCGCCTGGAACGCCTGAACCGCCTGGACCGCCTGGACCGCCGGAGCCTCCTCCGCAGCCGGCCAGTGCCAGTGACGCTGCCAACAAAACCGAAAATCTGACTGTAACCGAAGAAGTCATTCCAATGCCCCTCAATGTGTTGCCTATTCCTGTAGTATTACCTCCAATCAAGGAGGCCAAACTGCAATAGAGAATGCCCTTTCCGATCGACGCATGCCGAAATTGCACTTTGGTGTTTCTACCGGGCTAATTTGTTCTCTCTGGAGAGAAACTTAGCTATACGGACCTTACGGGCGGGTCCTGTTGAGGCAATCACCCAAATGGGTGAGTGCTTGATTTTGTTGCCGGGCCTATGGGTTGGCAGACACGGGAGGGGCGAAGTGGACGACGCGGCATCGGAAGAATCTAGACTGCAGATGGTGAGCAAGGGCGAGGAGCTGTTCA (double strand) [SMc02493 / SMc02494] | binds more weakly |
| AGCGGATAACAATTTCACACAGGAAACAGCATATGACCATGATTACGCCAAGCTCGAAATTAACCCTCACTAAAGGGAACAAAAGCTGGAGCTCTTAAGCTTCGTCTGCAACCGAGAACATTCAGGTCTCGATTTTTGCTGGCCGTGCCGCGAAATCCGGGGTATTGTCAAGATCGTGACGCCCTTCGTTTTTGATGCGGGCGTATTGACATAGTACCTGCGACTTCATCTGCGCCGCGGCATGCCCGAGGGCGCTGGTTAAAGACAACGTGCTTGTGCAGCCGAAGTAGATCTGGGTAGCATTGAACTAATTCATTGCGCCTTATTCAATATTTTACTAAAGTAACAAAATATAGAAAATTTTTTAATATTAGCAGGTTTCCATGACGACATTCGTTCCCGATGGCTCTAGACTGCAGATGGTGAGCAAGGGCGAGGAGCTGTTCA (double strand) [SMb21240] | binds more weakly |
| AGCGGATAACAATTTCACACAGGAAACAGCATATGACCATGATTACGCCAAGCTCGAAATTAACCCTCACTAAAGGGAACAAAAGCTGGAGCTCTTAAGCTTCGTTCATCTTCGTCCTGCCCGGATCCCCCGGTGCCTGCAAGGACGCCTGGGACGGAATCCTGAAGCAGCAACTCGATTACCGGCACATGCCGTGCAATTTCGTCGAGATCATGCCGCGGCTCGACGAGCACCTGAAGCGCGGCTGACGAGATTCGTGTTCCGTTTGGAACAGACCCGCGCCCCGAATCCCGCTAGTTTGCCTTCGTCGGCTTGGCTCGAAGCGGGCAAGGCAAGCACCGTTTAATTGCATTAAAGAGGAGAAATCTAGAATGACTAGACTGCAGATGGTGAGCAAGGGCGAGGAGCTGTTCA (double strand) [SmelC181] | binds |
| AGCGGATAACAATTTCACACAGGAAACAGCATATGACCATGATTACGCCAAGCTCGAAATTAACCCTCACTAAAGGGAACAAAAGCTGGAGCTCTTAAGCTTCGTTCGGTGTTTTGTTCTGGCGAACATGATTTGTGTCCTCTGCGGGATTTAAAAGTGGGTCGGATCGGCAGTTTTTTTAGCTCGGGGAGTTTTCCGTCCCGACTCGCTTCTAGAAACAGAAACTCCCGCCGATATCAATGGTAAATAAATACACCGACATTGAGGCATTACTAAGTCACGAGACAAGAAGTTACAGAGAGGACGGAACAAGACGTTTATTTGTTCCAAATTAAATGTGCGGGAAGAATTTGATTCTTCTCGGAATTGGCGGTGCGGTAGCGTAAAAATGGCATCGAAATAATAGTATTTTCACATTTTTATCTTTAGGGAGCAGATGAAAAATCTGGATTGCAACTGTCTTCTGGTTAAAGAACAGGCCCCCATCACTAGACTGCAGATGGTGAGCAAGGGCGAGGAGCTGTTCA (double strand) [SMa1917 / SMa1918] | binds more weakly |
